Some of the results follow.

By UniProt entry, the sequences of proteins in these tests, tags left out.
UniProt Q0JBA9, entry or part of it: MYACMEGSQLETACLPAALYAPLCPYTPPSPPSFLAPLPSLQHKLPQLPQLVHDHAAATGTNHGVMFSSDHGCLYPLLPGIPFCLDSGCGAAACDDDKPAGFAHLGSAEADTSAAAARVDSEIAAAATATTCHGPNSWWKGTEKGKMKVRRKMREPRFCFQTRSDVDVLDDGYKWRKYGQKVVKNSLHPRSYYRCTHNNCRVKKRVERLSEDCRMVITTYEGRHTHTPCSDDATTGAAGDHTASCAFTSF

This assay has as its target OsWRKY34 (Oryza sativa, UniProt Q0JBA9 1-250). The experiment in a line: protein-binding microarray (RPBM); PBS, 2% BSA, 51.3 ng/ul salmon testes DNA, 50 uM zinc acetate, 200 nM TF, 25 C, 1 h; high values mean tight binding. To be noted: protein: recombinant; tags: N-terminal polyhistidine and DsRed monomer fusion (pET32a); label: CyDye5-dUTP incorporated in the synthesized complementary strand; 3' TTTTT single-stranded linker to array surface; dsDNA, one strand shown. The essentials: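 For the binding signal, per-feature fluorescence intensity was read in arbitrary units on an Axon 4000B scanner. Before scanning, a 2% BSA-blocked custom Agilent array made double-stranded with Cy5-dUTP was washed after 1 h at 25 °C with 200 nM protein and 50 µM zinc acetate. The proteins were Ni–NTA-purified transcription factors with N-terminal polyhistidine and DsRed fusions, expressed in E. coli BL21-CodonPlus.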
For the sequence “TCCTGCAAAATCCTCGCGCTGATCAGCTGATTTTTTTTTCCGGAGTCACCTAGTGCAG”, the binding signal is 8520 fluorescence intensity (a.u.).

“GTCGTCGCGCTACTTCCCGGCGGCGTCGTGGGGCGGGCTGCGGAGTCACCTAGTGCAG”: the binding signal is 8030 fluorescence intensity (a.u.).

As to “CTCTACCACGCTGTCACGGTGCTAAAATCCCGGAAACCCACGGAGTCACCTAGTGCAG”, the binding signal is 8880 fluorescence intensity (a.u.).

Turning to “CCCTGATTTATGTGCAAAAACTACTTTAAACTGTTTTTTCCGGAGTCACCTAGTGCAG”, the binding signal is 8370 fluorescence intensity (a.u.).

As for “GTTGGGGAGAAGGCGGCGGCGGCGGCGGAGGAGGAGGCCACGGAGTCACCTAGTGCAG”, the binding signal was 8330 fluorescence intensity (a.u.).

Consider “TTTCGTAGCTACTCCTAGATGTCGCATGTTATACGCTTTACGGAGTCACCTAGTGCAG”, for which the binding signal was 8830 fluorescence intensity (a.u.).

Consider “ATACATTTTTGATACATTCTCAGTTTTTGTTTTGTATTAGCGGAGTCACCTAGTGCAG”, for which the binding signal was 12100 fluorescence intensity (a.u.).

Turning to “ATATATCTCCCATAAACTATTTTTCTTACGGTACTGTCATCGGAGTCACCTAGTGCAG”, the binding signal is 9410 fluorescence intensity (a.u.).

On to “CACACCATTCGCCTGCGTGCTAGTATTAGCCAGTCAATGTCGGAGTCACCTAGTGCAG”, for which the binding signal was 8310 fluorescence intensity (a.u.).

Turning to “TAGTGTTGGTTGTTAGGGATATGTTTTGGGCAATCTCGGCCGGAGTCACCTAGTGCAG”, the binding signal was 10800 fluorescence intensity (a.u.).

Take “ACTCAAATGTGTTTTTCTTTCACAAGTTGCCGTTAAAAATCGGAGTCACCTAGTGCAG”: the binding signal was 9330 fluorescence intensity (a.u.).

Consider “GGGAGGGGCATGGGAGGAATCAAAGCGAAATTTCAAGGGTCGGAGTCACCTAGTGCAG”, for which the binding signal is 9760 fluorescence intensity (a.u.).

As for “CTCCTCAACCCGCTCTCCGGCCACCGCCCGCTCGACGCGCCGGAGTCACCTAGTGCAG”, the binding signal is 9570 fluorescence intensity (a.u.).

For “GCCCGGATCGTTGACCCTTCCTTCCCTACTCGGTGTCTTTCGGAGTCACCTAGTGCAG”, the binding signal is 13600 fluorescence intensity (a.u.).

As to “ATCGATACCACTTCCCATCCACCATATTCCAATGCTACCTCGGAGTCACCTAGTGCAG”, the binding signal was 9300 fluorescence intensity (a.u.).

For “GTTATTTTGCACCGTTTAACTATTTGCCACTTTTAGATTTCGGAGTCACCTAGTGCAG”, the binding signal is 8440 fluorescence intensity (a.u.).

In the case of “CCCCGCGCATCTCGCCGTCCACCGCCTCACTCCATCCACCCGGAGTCACCTAGTGCAG”, the binding signal is 9000 fluorescence intensity (a.u.).

On to “TTTTGCTTGCAACGTTTGACCACTCGTCTTATTCAAATTTCGGAGTCACCTAGTGCAG”, for which the binding signal is 10200 fluorescence intensity (a.u.).

As for “TTGTGCTCCACCGCTCTGTTCTGCCCAGTGCCAGCAGTGTCGGAGTCACCTAGTGCAG”, the binding signal is 9420 fluorescence intensity (a.u.).

“CAAGGCCATGTGCCATGTTTGACCGACTACTCCTACAAACCGGAGTCACCTAGTGCAG”: the binding signal was 9520 fluorescence intensity (a.u.).

With “AGCCACTATTCGCTGTGCCGATCCACACTGCGGTTTTATTCGGAGTCACCTAGTGCAG”, the binding signal is 8760 fluorescence intensity (a.u.).

On to “CACCTGTCATCCACCATTCCCCATACCCGTCCGTGTCACGCGGAGTCACCTAGTGCAG”, for which the binding signal was 8870 fluorescence intensity (a.u.).

Regarding “CCCTGCTCTTGCATAATGCATTTAGCCTATTTGGTCTTCACGGAGTCACCTAGTGCAG”, the binding signal is 9700 fluorescence intensity (a.u.).

On to “GGGTTTTCACTTACCGGTTTTAAGGGTCCCTTTAAATTATCGGAGTCACCTAGTGCAG”, for which the binding signal is 8490 fluorescence intensity (a.u.).

Consider “GCCTGCTATTGTACCTGCTTTAATATAGCCAACCTACTATCGGAGTCACCTAGTGCAG”, for which the binding signal was 8330 fluorescence intensity (a.u.).

Turning to “ACCTCAACAAAAGCTTTGTAGTAGCTCTTAATTGTTGGGTCGGAGTCACCTAGTGCAG”, the binding signal is 8220 fluorescence intensity (a.u.).

As to “GCCGTCTCGCCATTTTGACCAGACCACCTCGCTGCCTCTGCGGAGTCACCTAGTGCAG”, the binding signal is 10600 fluorescence intensity (a.u.).

“TCCAGATCGCACGCATTGACCAGACCACCCAACTCTACTTCGGAGTCACCTAGTGCAG”: the binding signal was 9490 fluorescence intensity (a.u.).

As for “TGAGACAAAGCACATTCTACCCAAGGCCAGTTGCACCAACCGGAGTCACCTAGTGCAG”, the binding signal was 8080 fluorescence intensity (a.u.).

Regarding “ATTTGCTCTCGTCCATGGGTTAATTTCTGGATTATCACGACGGAGTCACCTAGTGCAG”, the binding signal is 8100 fluorescence intensity (a.u.).

As to “TGATATGGTTGGAGGGATGATGCTTTATAAGTTGGTTCCACGGAGTCACCTAGTGCAG”, the binding signal is 8600 fluorescence intensity (a.u.).

In the case of “CCCCTCGCCGGTCTGTTTGTGGGCTCTATCTAGCTCGGGGCGGAGTCACCTAGTGCAG”, the binding signal was 11200 fluorescence intensity (a.u.).

Regarding “GCTACACATATTCCCTCCTTTTTCATCTCCTTCATTGTAACGGAGTCACCTAGTGCAG”, the binding signal was 8920 fluorescence intensity (a.u.).

Take “TTTTAATCCTTTGTTCAGTAACACATTTTGCTAGATCTGTCGGAGTCACCTAGTGCAG”: the binding signal was 9490 fluorescence intensity (a.u.).

Turning to “GTTAACTTGCTTATATGGTACTAGAAGAAAAACTTAATGGCGGAGTCACCTAGTGCAG”, the binding signal is 64900 fluorescence intensity (a.u.).

On to “CATTTTACCTGTATTGTTTAACTATTTGTCTTATTTAAAACGGAGTCACCTAGTGCAG”, for which the binding signal was 8460 fluorescence intensity (a.u.).

Consider “TGGACATGAGTCCTACTGGCAGCTGCTTCACTGGCTGTGCCGGAGTCACCTAGTGCAG”, for which the binding signal is 8810 fluorescence intensity (a.u.).

For the sequence “TCCATTTCGGCATCGGCTCCGCCCTCTCTTCTCTTCCGCTCGGAGTCACCTAGTGCAG”, the binding signal is 9560 fluorescence intensity (a.u.).

Take “ATTTTCTTCAGAGTTATTCTTTTCTTTTCTTTTCTTTTCTCGGAGTCACCTAGTGCAG”: the binding signal was 8680 fluorescence intensity (a.u.).

As for “GCAACCACAACCACCAACGACGCCGATCGATCGAGCCAACCGGAGTCACCTAGTGCAG”, the binding signal is 9000 fluorescence intensity (a.u.).

As to “CAGAACTTGTCCTTTTTTTTGCTTTGATATGTTCAGAAGACGGAGTCACCTAGTGCAG”, the binding signal was 8730 fluorescence intensity (a.u.).

For “CTCCTTATTACAGTATGCATGATCTACTACATGAGTTAGCCGGAGTCACCTAGTGCAG”, the binding signal is 9430 fluorescence intensity (a.u.).

For the origin of these results see article PMC7819943, “Rice protein-binding microarrays: a tool to detect cis-acting elements near promoter regions in rice”.
